# Earlier results, collected in US20100298242A1, “MASKING THE TASTE OF COMPOSITONS CONTAINING SALT” (priority 2006, published 2010).
# At least one compound was matched to its structure with a doubt left.
# Conditions: sugars and sugar alcohols table; cited from earlier work
smiles,measurement,value
O=C(CO)[C@@H](O)[C@H](O)[C@H](O)CO [Fructose],Sweetening power,1.2
